Assay results as given in patent US20120115819A1, “Pentacycline Compounds” (priority 2009, published 2012).
The name of at least one read-out is uncertain.

Tests used:
Type in all cases: cell-based
[1] = system: K. pneumoniae KP109 (ATCC 13883, wt); assay: Minimum inhibitory concentration (MIC) assay, strain KP109; settings: KP109 (column inferred); control compounds, numeric
[2] = system: S. aureus SA100 (ATCC 13709, MSSA, Smith strain); assay: Minimum inhibitory concentration (MIC) assay, strain SA100; settings: numeric value, control compounds
[3] = system: E. coli EC155 (tet resistant: tetA (efflux)); settings: EC155 tetA (column inferred); control compounds, numeric
[4] = system: A. baumanii AB110 (ATCC 19606, wt); assay: Minimum inhibitory concentration (MIC) assay, strain AB110; settings: AB110 (column inferred); control compounds, numeric
[5] = system: E. cloacae EC108 (ATCC 13047, wt); assay: Minimum inhibitory concentration (MIC) assay, strain EC108; settings: EC108 (column inferred); control compounds, numeric
[6] = system: K. pneumoniae KP153 (tet resistant: tetA (efflux)); settings: KP153 tetA (column inferred); control compounds, numeric
[7] = system: S. aureus SA101 (ATCC 29213, MSSA); assay: Minimum inhibitory concentration (MIC) assay, strain SA101; settings: numeric value, control compounds
[8] = system: P. aeruginosa PA111 (ATCC 27853, wt); assay: Minimum inhibitory concentration (MIC) assay, strain PA111; settings: PA111 (column inferred); control compounds, numeric

Row | SMILES | MIC [1] | MIC SA100 13709 [2] | MIC [3] | MIC [4] | MIC [5] | MIC [6] | MIC SA101 29213 [7] | MIC [8]
1 | CN(C)c1cc(NC(=O)CNC(C)(C)C)c(O)c2c1C[C@H]1C[C@H]3[C@H](N(C)C)C(O)=C(C(N)=O)C(=O)[C@@]3(O)C(O)=C1C2=O [Tige., Tigecycline] | 0.125 | 0.06 | 0.5 | 0.25 | 0.25 | 1 | 0.06 | 8
2 | CN(C)[C@@H]1C(O)=C(C(N)=O)C(=O)[C@@]2(O)C(O)=C3C(=O)c4c(O)cccc4C[C@H]3C[C@@H]12 [San., Sancycline] | 8 | 1 | 32 | 0.25 | 8 | 32 | 0.5 | >32
